From paper PMC5351991
No constants are given. Whether binding was seen depends on the method and setting. Binding can be weak; no strength is given. Where a sequence is shown, tags or fusion partners need not be part of it.

Target: Cytoplasmic region of AtNIP1;1, yeast two-hybrid fusion (Arabidopsis thaliana)
Assay: two-hybrid; yeast strain AH109; Gal4 activation domain and DNA-binding domain fusions; growth on SC -Leu-Trp-His or SC -Leu-Trp-His-Ade with 10 mM 3-amino-1,2,4-triazole and 40 uM X-alpha-gal, 30°C, serial dilutions

B1: Calcium-dependent protein kinase CPK31, full-length, yeast two-hybrid fusion (enzyme, UniProt Q9S9V0 1-484)
chain: MGCYSSKNLKQSKRTILEKPFVDIGKVYILGDELGQGQFGITRKCVEKTSGKTYACKTILKTNLKSREDEEAVKREIRIMKHLSGEPNIVEFKKAYEDRDSVHIVMEYCGGGELFKKIEALSKDGKSYSEKEAVEIIRPIVNVVKNCHYMGVMLRDLKPENFLLSSTDKNATVKAIDFGCSVFIEEGEVHRKFAGSAYYIAPEVLQGKYGKEADIWSAGIILYILLCGKPPFVTEPEAQMFSEIKSAKIDVDSESWKFIDVKAKHLVNRMLNRNPKERISAAEVLGHPWMKDGEASDKPIDGVVLSRLKQFRDMNKLKKVALKVIAANLSEEEIKGLKTLFTNIDTDKSGTITLEELKTGLTRLGSNLSKTEVEQLMEAADVDGNGTIDIDEFISATMHRYRLDRDDHVYQAFQHFDKDNDGHITKEELEMAMKEHGVGDEVSIKQIITEVDTDNDGKINFEEFRTMMRSGSSLQPQRELLPIK
binding: binds
